# Measured values from article PMC12670160, “A drug-repurposing screen of FDA- and EMA-approved drugs identifies two NF-κB inhibitors active against eumycetoma” (Journal of Antimicrobial Chemotherapy, 2025).
# Out of some 5,300 compounds screened, about 130 (2.5%) showed an effect of 50% or more. The list shows a part of the results.
# System: M. mycetomatis strain mm55
# Conditions: primary screen, metabolic activity vs growth control; 96 h, 2 µM; inhibitor
row,Compound,% viability
1,"CCCCOC(=O)c1cc2c(cn1)[nH]c1ccccc12 [ONC0001675, betaccb]",80.52%
2,"N#CC[C@H](C1CCCC1)n1cc(-c2ncnc3[nH]ccc23)cn1 [ONC0004795, ruxolitinib incb018424]",76.56%
3,"O=[N+]([O-])c1ccc(O)c2ncccc12 [ONC0005357, nitroxoline]",114.2%
4,"CS/C(N)=C(C#N)/C(C#N)=C(\N)SC [ONC0001516, u0124]",64.22%
5,"O=C(O)Cc1cc2ccccc2nc1C(=O)O [ONC0000070, ccmq]",115.3%
6,"CCCCC/C=C\C/C=C\C/C=C\CCCCC(=O)O [ONC0003850, gammalinolenicacid]",67.24%
7,"NS(=O)(=O)c1ccc2c(c1)C1C=CCC1C(c1ccc(Br)cc1)N2 (stereo not drawn) [ONC0001411, 4bptqs]",74.33%
8,"Cc1cccc(C)c1OCC(=O)N[C@@H](Cc1ccccc1)[C@@H](O)C[C@H](Cc1ccccc1)NC(=O)[C@H](C(C)C)N1CCCNC1=O [ONC0004639, lopinavir abt378]",99.64%
9,"Clc1ccc(C(c2ccccc2Cl)C(Cl)Cl)cc1 (stereo not drawn) [ONC0003263, mitotane]",101.6%
10,"O=C(c1ccc(F)cc1)C1CCN(CCn2c(=S)[nH]c3ccccc3c2=O)CC1 [ONC0004473, altanserin]",127.8%
11,"O=C(O)Cn1nnc(-c2cc(N3CCC(Oc4cc(F)ccc4Br)CC3)no2)n1 [ONC0004727, mk8245]",83.44%
12,"NC1=NC(=O)N([C@H]2C[C@H](O)[C@@H](CO)O2)CN1 [ONC0003691, 56dihydro5aza2deoxycytidine]",81.67%
13,"O=C(Nc1cccc(Br)c1)c1cccc(S(=O)(=O)N2CCCCCC2)c1 [ONC0004476, ak7]",107.9%
14,"CC[N+](C)(CC)CCC[n+]1c(-c2ccccc2)c2cc(N)ccc2c2ccc(N)cc21 [ONC0002942, propidiumiodide]",57.69%
15,"O=C(O)c1ccccc1Nc1cccc(C(F)(F)F)c1 [ONC0000652, flufenamic acid]",110.6%
16,"C[S+](CC[C@H](N)C(=O)[O-])C[C@H]1O[C@@H](n2cnc3c(N)ncnc32)[C@H](O)[C@@H]1O (stereo partly drawn) [ONC0002262, ademetionine]",72.7%
17,"c1ccc(-c2nn3c(c2-c2ccnc4cc(OCCN5CCOCC5)ccc24)CCC3)nc1 [ONC0004458, ly2109761]",103.5%
18,"CC(=O)Nc1ccc(S(=O)(=O)c2ccc(NC(C)=O)cc2)cc1 [ONC0004224, acedapsone]",69.59%

# An excerpt of these results, tab-delimited:
row	Compound	% viability
5	O=C(O)Cc1cc2ccccc2nc1C(=O)O [ONC0000070, ccmq]	115.3%
12	NC1=NC(=O)N([C@H]2C[C@H](O)[C@@H](CO)O2)CN1 [ONC0003691, 56dihydro5aza2deoxycytidine]	81.67%
